# This is one part of the list.
# By UniProt entry, the sequences of proteins in these tests, tags left out.
# UniProt Q0JBA9, entry or part of it: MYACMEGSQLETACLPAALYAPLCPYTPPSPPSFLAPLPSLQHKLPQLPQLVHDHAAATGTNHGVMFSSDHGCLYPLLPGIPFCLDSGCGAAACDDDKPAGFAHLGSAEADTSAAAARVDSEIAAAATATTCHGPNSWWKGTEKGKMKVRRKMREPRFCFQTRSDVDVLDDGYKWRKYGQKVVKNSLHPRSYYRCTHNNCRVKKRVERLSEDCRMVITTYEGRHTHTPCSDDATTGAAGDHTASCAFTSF
# Molecular target: OsWRKY34 (Oryza sativa, UniProt Q0JBA9 1-250)
# Experiment: protein-binding microarray (RPBM); PBS, 2% BSA, 51.3 ng/ul salmon testes DNA, 50 uM zinc acetate, 200 nM TF, 25 C, 1 h; high values mean tight binding
# Conditions: protein: recombinant; tags: N-terminal polyhistidine and DsRed monomer fusion (pET32a); label: CyDye5-dUTP incorporated in the synthesized complementary strand; 3' TTTTT single-stranded linker to array surface; dsDNA, one strand shown
# Method in brief: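 A custom Agilent array was converted to double-stranded form by primer extension with Cy5-dUTP and blocked with 2% BSA. Protein at 200 nM in PBS with 2% BSA, salmon testes DNA and 50 µM zinc acetate was applied for 1 h at 25 °C, followed by washing. The proteins were polyhistidine–DsRed N-terminal fusions of transcription factors, expressed in E. coli BL21-CodonPlus and Ni–NTA-purified. The binding signal is per-feature fluorescence intensity (arbitrary units) from an Axon 4000B scanner.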
row,Sequence,binding signal
1,TGTGGTTCTATTGCTTTCGTGCGTTTGGTGATCCATGCTACGGAGTCACCTAGTGCAG,11100 fluorescence intensity (a.u.)
2,TTGCGCCCGGCCACCACCGCCTGCCGCCTTGCTGCCAGCCCGGAGTCACCTAGTGCAG,9640 fluorescence intensity (a.u.)
3,CTTTCTCCTTTCTCTCCACTTTTTACGGATCTGGTGCTCCCGGAGTCACCTAGTGCAG,8270 fluorescence intensity (a.u.)
4,GACATTTTGACCTTGAGCTCTAGTCTCAACACCGTTAACTCGGAGTCACCTAGTGCAG,8890 fluorescence intensity (a.u.)
5,GGGCTGCATATTTGAGGGGAGGGCGTGAGGCGGCTGTTTGCGGAGTCACCTAGTGCAG,12200 fluorescence intensity (a.u.)
6,TATAGCTGGTTCTTGCATGTACTTACCTCATACTATTTGACGGAGTCACCTAGTGCAG,11700 fluorescence intensity (a.u.)
7,TCCTCCTCCGATTGGGTTGGGGATTTCTGCTTCTGTTCGACGGAGTCACCTAGTGCAG,10900 fluorescence intensity (a.u.)
8,GCGGGCAGTGGGCGCGAGATCTCATCCGAGTGGGTGGGCGCGGAGTCACCTAGTGCAG,8060 fluorescence intensity (a.u.)
9,AAAGCCACTCTTCTCCTTTGAACATTCTTCTCCTTTTCTTCGGAGTCACCTAGTGCAG,8880 fluorescence intensity (a.u.)
10,TCTCGCTCCCTCCATTCCGACGTCTCATTCTCTCTCCACACGGAGTCACCTAGTGCAG,10500 fluorescence intensity (a.u.)
11,GAGAATACTTTTATTCTTTTACTCTTAGCCGTTTAATTGCCGGAGTCACCTAGTGCAG,8030 fluorescence intensity (a.u.)
12,TCCCGCTCACCACCACGCCACGTCACCGATCCGCGCAACCCGGAGTCACCTAGTGCAG,9510 fluorescence intensity (a.u.)
13,GTGTCTGAATTCTCGTCCACCTTTTGCAACAGGCAAGTATCGGAGTCACCTAGTGCAG,8180 fluorescence intensity (a.u.)
14,GTCTCAATCACCACGTGCTCTTCCATCCTCCATAAATACTCGGAGTCACCTAGTGCAG,8320 fluorescence intensity (a.u.)
15,AATTTAATGCATGACCTTCTATTCTTCCACACGAGATTGACGGAGTCACCTAGTGCAG,8280 fluorescence intensity (a.u.)
16,TTCTTCCTCACGCCTCTGAATTCAGTTGGATCTCCGGCAACGGAGTCACCTAGTGCAG,9550 fluorescence intensity (a.u.)
17,AACCCTAACCCGCGCGCTCGCCTCCTCCTCCTCAGCCATGCGGAGTCACCTAGTGCAG,8490 fluorescence intensity (a.u.)
18,CATTTTGCCGCCATTGACCTCGCCGTCGCCATGAACATCTCGGAGTCACCTAGTGCAG,8490 fluorescence intensity (a.u.)
19,TACTTCGCATTCAGTTTCAGTTTCAGAGAAGAGACAGCTTCGGAGTCACCTAGTGCAG,8500 fluorescence intensity (a.u.)
20,CGCTCCATCCAACTCATCACACACACGACACAGCACACCGCGGAGTCACCTAGTGCAG,8250 fluorescence intensity (a.u.)
21,TGTCTGGTTTGACTTGGTCCTCATCCCACTGGACATTGACCGGAGTCACCTAGTGCAG,10000 fluorescence intensity (a.u.)

row,Sequence,binding signal
1,CTTCCTAAAGTCTTGTTTTTCGTCTTCAAGTCATCGTTATCGGAGTCACCTAGTGCAG,10200 fluorescence intensity (a.u.)
2,ATTACGCCAATATGCGTGCCTCCTCTTCGCGTTCTCTCTCCGGAGTCACCTAGTGCAG,8360 fluorescence intensity (a.u.)
3,GCTAATCGCTACTCCGTTTTCCGTGCGGGCACTTAGTGTTCGGAGTCACCTAGTGCAG,8120 fluorescence intensity (a.u.)
4,CTTTTTATTCATTCATGCTCTCTACTTTTAACAATTAACACGGAGTCACCTAGTGCAG,9320 fluorescence intensity (a.u.)
5,TTTTTACAAGCAACATCCCGACCTGGACGCACATAGCTACCGGAGTCACCTAGTGCAG,8560 fluorescence intensity (a.u.)
6,TGGAGGGAGTAATTAACTGTTGTTTGTTTGTCAGCTTCTACGGAGTCACCTAGTGCAG,8910 fluorescence intensity (a.u.)
7,CTCTCTCTCTCTCTCTCTCTTCTTTCTCTCTCTTGCTGCCCGGAGTCACCTAGTGCAG,9280 fluorescence intensity (a.u.)
8,TTCTTTTGGCATGGTGATGACATGTTTGTTGCTGCTGACGCGGAGTCACCTAGTGCAG,9490 fluorescence intensity (a.u.)
9,AAACACTGATTTTCGTGTCTAATGTTTGACCGTCCATCTTCGGAGTCACCTAGTGCAG,8940 fluorescence intensity (a.u.)
10,TGTCCTGGGATGTTGGGAGTTATGCTTGCGTTAAATCTGACGGAGTCACCTAGTGCAG,8810 fluorescence intensity (a.u.)
11,GCGCTCGACCACCCGCGCGCACCGGCGAAACATACGGCGCCGGAGTCACCTAGTGCAG,9210 fluorescence intensity (a.u.)
12,GTTGTATTGATGATTCTTTCTCCCTTGATGTCGCTGAACTCGGAGTCACCTAGTGCAG,9040 fluorescence intensity (a.u.)
13,TGAGGCCCTTAGCCTTATTATGGGATGGGGTGTCTAGATACGGAGTCACCTAGTGCAG,8380 fluorescence intensity (a.u.)
14,GGATGCTTTTATCTGTGCACTAATGATTCATAGTTTCAATCGGAGTCACCTAGTGCAG,9120 fluorescence intensity (a.u.)
15,TGCAATCTACCAATACTATTGTTCACTGTACCACCCTTATCGGAGTCACCTAGTGCAG,9050 fluorescence intensity (a.u.)
16,ATTCATTCACTCGTCGACTTTTCGTCGTCCTCCGCGACGACGGAGTCACCTAGTGCAG,11600 fluorescence intensity (a.u.)
17,CCACCGCCACCGCCGCGTCGTCCTCTTCCACCAACACCTCCGGAGTCACCTAGTGCAG,12100 fluorescence intensity (a.u.)
18,CCTATAAATGTTTCTGTAGTTATCTAGATTAGAATTTTCTCGGAGTCACCTAGTGCAG,8520 fluorescence intensity (a.u.)
19,GCTGGCTCGATAGCTCGCTATCTCACACTTCGTCGCCGGCCGGAGTCACCTAGTGCAG,8550 fluorescence intensity (a.u.)
20,TGCACTTGATTAGTACAGGAGTTAACTGCATCTACGACTCCGGAGTCACCTAGTGCAG,8600 fluorescence intensity (a.u.)
21,ATGCTCGCTGATCAGATGGTATGCCTACTCTTAACCACTACGGAGTCACCTAGTGCAG,8020 fluorescence intensity (a.u.)

# Shown with tabs: part of the list above
row	Sequence	binding signal
12	TCCCGCTCACCACCACGCCACGTCACCGATCCGCGCAACCCGGAGTCACCTAGTGCAG	9510 fluorescence intensity (a.u.)
16	TTCTTCCTCACGCCTCTGAATTCAGTTGGATCTCCGGCAACGGAGTCACCTAGTGCAG	9550 fluorescence intensity (a.u.)
20	CGCTCCATCCAACTCATCACACACACGACACAGCACACCGCGGAGTCACCTAGTGCAG	8250 fluorescence intensity (a.u.)
12	GTTGTATTGATGATTCTTTCTCCCTTGATGTCGCTGAACTCGGAGTCACCTAGTGCAG	9040 fluorescence intensity (a.u.)

# (further entries)

row,Sequence,binding signal
1,AATTACTTTAGCTTTGTTCTGCACTGTTCAAGTTTATTTGCGGAGTCACCTAGTGCAG,10300 fluorescence intensity (a.u.)
2,CATCAACCATCTCCAATTTAAATTTCTCCCCATTCTACCTCGGAGTCACCTAGTGCAG,8630 fluorescence intensity (a.u.)
3,CTTCTTCGCTCTCCACTCCGTCGTCCACCATGGCAACCTCCGGAGTCACCTAGTGCAG,8890 fluorescence intensity (a.u.)
4,TTTCTCACATGTTTGACCATTCGTCTTATTCAAAAATTTTCGGAGTCACCTAGTGCAG,12800 fluorescence intensity (a.u.)
5,GCTCCGTAGTTCCGACAGATTCCTCATCCTCTTTCCCTTTCGGAGTCACCTAGTGCAG,11100 fluorescence intensity (a.u.)
6,GTCTCGCTTTCTCTCTCTAGGGTTTTTCCCCACTTTCGTTCGGAGTCACCTAGTGCAG,13700 fluorescence intensity (a.u.)
7,TAGTGTTGACCCCGGTTTTATCCTACGTAGCGGCTGAGTCCGGAGTCACCTAGTGCAG,9050 fluorescence intensity (a.u.)
8,TCCACCAATTCTCTCTTTCTCTCTCAATTAGTCTACGACACGGAGTCACCTAGTGCAG,9020 fluorescence intensity (a.u.)
9,ACATCAGTTTGTTCGATATGGTTGTTAGTGTATTTTTTAACGGAGTCACCTAGTGCAG,8740 fluorescence intensity (a.u.)
10,TGACCCACCACCTTCTGAAAGCTACACACCAAATTGCAAACGGAGTCACCTAGTGCAG,8200 fluorescence intensity (a.u.)
11,GGTAAGTTTTCTCCCTTGCTACAATACTACTATTGCCTGTCGGAGTCACCTAGTGCAG,8980 fluorescence intensity (a.u.)
12,TTTTATCCTACTCAAACTATCTTTTTTATTTCTCTAATTCCGGAGTCACCTAGTGCAG,9440 fluorescence intensity (a.u.)
13,ATCTCTTGCTTTACCTCTTGACTCGCATTTACAGAGTACACGGAGTCACCTAGTGCAG,8180 fluorescence intensity (a.u.)
14,TCGATTTGCTCGGAGGCGGAGAGGCCATGCATCCACGGAGCGGAGTCACCTAGTGCAG,8030 fluorescence intensity (a.u.)
15,AGAGGGACAAGGGAGTTTGGGGTGTGTGTTTAGGTAATACCGGAGTCACCTAGTGCAG,9270 fluorescence intensity (a.u.)
16,AAAATTTTGCCTACCTATTGTTGTTCTTTTTCCTATATATCGGAGTCACCTAGTGCAG,9090 fluorescence intensity (a.u.)
17,GAACCTCTCTAGCTATCCTTTGGTAATACCCTGCATCATACGGAGTCACCTAGTGCAG,10200 fluorescence intensity (a.u.)
18,GACTTTTTTTCCACGGCCGAAACATACCGCGTGCATACGTCGGAGTCACCTAGTGCAG,9720 fluorescence intensity (a.u.)
19,TGATCTGATTTTTTTGGTTTTCATTTGCACATTTTCTAAGCGGAGTCACCTAGTGCAG,10400 fluorescence intensity (a.u.)
20,CCATACGATTCTTGGGGTATTTGGGTTGTTTTAGCTTCTGCGGAGTCACCTAGTGCAG,13100 fluorescence intensity (a.u.)
21,CGTGTTGTTTCTTACGTACCATTTAAATAGTTACTCTCTCCGGAGTCACCTAGTGCAG,12100 fluorescence intensity (a.u.)

row,Sequence,binding signal
1,GCATATTTAATTTGTTATTCTCCATTTATATTTCCTCAATCGGAGTCACCTAGTGCAG,9060 fluorescence intensity (a.u.)
2,AATACTATGCTTTTATATTCCTTTTTTTTTCTTAATCCTTCGGAGTCACCTAGTGCAG,9770 fluorescence intensity (a.u.)
3,TTCCACCCTATATGTCAATATTTTTTTTGTAAATGCTCACCGGAGTCACCTAGTGCAG,9410 fluorescence intensity (a.u.)
4,CGGTGGGTGGTGGACATTGGCGGGCGACGAGGCGCCGGTGCGGAGTCACCTAGTGCAG,9210 fluorescence intensity (a.u.)
5,CCACTCTCGCCGCTCGCCGTTGCCACTCGCACTCACAATGCGGAGTCACCTAGTGCAG,10100 fluorescence intensity (a.u.)
6,TATGGCTGTGTTTAGTTCGTGTGCCAAAATTTTTTTAAGTCGGAGTCACCTAGTGCAG,10400 fluorescence intensity (a.u.)
7,CACAGGCGCGAGCATTCCCAGCGCTGCTCTCCCTGTACCCCGGAGTCACCTAGTGCAG,8080 fluorescence intensity (a.u.)
8,ACCTACCTCATCATCGTCGAGCTCCTGATTTGCGTCGAGGCGGAGTCACCTAGTGCAG,8200 fluorescence intensity (a.u.)
9,CCACCGCCGCCTCCCGCGAGGTCTCCTTCTCGCGCGACAACGGAGTCACCTAGTGCAG,8200 fluorescence intensity (a.u.)
10,AGGGGATGTTTAGCTTGATGGTGATTGCTGAACTGTTGGACGGAGTCACCTAGTGCAG,9160 fluorescence intensity (a.u.)
11,ACATGTTCTTTTTATGCTGCTTTACATATACTGCTTATCCCGGAGTCACCTAGTGCAG,12400 fluorescence intensity (a.u.)
12,GCGGCGGAGGCCACCGGCGGTGACAACGGGGAGGGGAGGACGGAGTCACCTAGTGCAG,8420 fluorescence intensity (a.u.)
13,CCATCAGTTGACCATGTGTTGACCGTTAACTCTCAAGTAACGGAGTCACCTAGTGCAG,9190 fluorescence intensity (a.u.)
14,GGAGAACTGAACCTTTTCTTCCTTATCGTCTTATGAACTACGGAGTCACCTAGTGCAG,8690 fluorescence intensity (a.u.)
15,TGACTTCTCAACACTCCCTCCGTCTCGTCTTATTTTAAGTCGGAGTCACCTAGTGCAG,11200 fluorescence intensity (a.u.)
16,ATAATATCTACTCCTGTCTCTCACCCCAGCCGCCCAATGACGGAGTCACCTAGTGCAG,8920 fluorescence intensity (a.u.)
17,AGAAGGTCGTGGCGAGGGAGGGTGGGCGACGGGCGTGGCGCGGAGTCACCTAGTGCAG,10600 fluorescence intensity (a.u.)
18,GCAGGTCTCGGGGTTCTTCTCGTCCATCTTCCCCACCGGCCGGAGTCACCTAGTGCAG,10700 fluorescence intensity (a.u.)
19,CCATGAGTCCACGGTCCATGGGGCAAAACACCGGGGCGGGCGGAGTCACCTAGTGCAG,8620 fluorescence intensity (a.u.)
20,ACCCCACACACTACCCCTCCCTAGTTCGCCTTCCACGTACCGGAGTCACCTAGTGCAG,8100 fluorescence intensity (a.u.)
21,TGTTATGAGATTAGGCCTTAGCTCCTTTGTTCCGGCTCTCCGGAGTCACCTAGTGCAG,8340 fluorescence intensity (a.u.)

# Reference: paper PMC7819943, “Rice protein-binding microarrays: a tool to detect cis-acting elements near promoter regions in rice”
